Laboratory results reported in paper PMC6039025.
These are yes or no findings as the source states them, for the method shown. Some results given as binding are weak or reduced against the parent protein; the word gives no strength. Sequences can lack the tags named with a protein.

T1: Smc4-L1333I-L1335A, 3xStrepTagII-tagged (S. cerevisiae) (UniProt Q12267)
T1 sequence: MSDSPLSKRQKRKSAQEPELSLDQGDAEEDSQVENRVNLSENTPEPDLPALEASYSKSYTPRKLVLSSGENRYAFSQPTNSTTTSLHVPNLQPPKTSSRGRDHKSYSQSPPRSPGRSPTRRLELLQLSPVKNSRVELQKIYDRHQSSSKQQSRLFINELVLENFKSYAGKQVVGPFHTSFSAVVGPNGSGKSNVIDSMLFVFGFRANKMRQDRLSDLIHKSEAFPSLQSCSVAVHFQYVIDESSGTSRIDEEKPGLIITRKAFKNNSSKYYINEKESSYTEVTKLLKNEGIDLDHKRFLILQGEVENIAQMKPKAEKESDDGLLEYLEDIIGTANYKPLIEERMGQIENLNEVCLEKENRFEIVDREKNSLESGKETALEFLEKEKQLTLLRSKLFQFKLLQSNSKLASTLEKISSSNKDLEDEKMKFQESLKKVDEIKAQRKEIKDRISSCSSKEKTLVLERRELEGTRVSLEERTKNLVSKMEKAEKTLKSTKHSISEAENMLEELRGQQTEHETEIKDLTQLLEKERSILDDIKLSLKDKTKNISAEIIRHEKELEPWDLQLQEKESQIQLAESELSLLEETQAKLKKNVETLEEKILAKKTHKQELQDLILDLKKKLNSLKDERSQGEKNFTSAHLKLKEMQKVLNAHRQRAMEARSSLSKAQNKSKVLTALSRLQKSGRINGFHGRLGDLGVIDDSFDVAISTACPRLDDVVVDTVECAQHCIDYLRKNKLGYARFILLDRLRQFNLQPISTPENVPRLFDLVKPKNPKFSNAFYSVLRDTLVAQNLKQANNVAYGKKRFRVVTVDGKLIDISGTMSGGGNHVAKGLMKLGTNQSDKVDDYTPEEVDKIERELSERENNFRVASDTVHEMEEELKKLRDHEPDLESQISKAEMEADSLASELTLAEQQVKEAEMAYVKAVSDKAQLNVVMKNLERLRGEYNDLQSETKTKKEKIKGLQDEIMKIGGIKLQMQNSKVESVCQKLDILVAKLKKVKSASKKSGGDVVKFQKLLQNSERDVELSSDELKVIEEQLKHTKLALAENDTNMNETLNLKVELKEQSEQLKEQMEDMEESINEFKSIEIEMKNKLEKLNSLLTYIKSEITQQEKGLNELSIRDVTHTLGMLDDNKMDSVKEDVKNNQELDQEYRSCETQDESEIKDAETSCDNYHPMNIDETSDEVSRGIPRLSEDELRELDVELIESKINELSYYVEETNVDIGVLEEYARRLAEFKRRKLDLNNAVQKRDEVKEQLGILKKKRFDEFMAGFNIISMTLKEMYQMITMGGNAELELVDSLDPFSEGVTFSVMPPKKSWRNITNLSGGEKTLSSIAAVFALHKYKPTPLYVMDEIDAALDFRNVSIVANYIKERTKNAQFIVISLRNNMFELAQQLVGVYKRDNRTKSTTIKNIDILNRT

B1: Smc2 (protein, UniProt P38989 1-1170)
chain: MKVEELIIDGFKSYATRTVITDWDPQFNAITGLNGSGKSNILDAICFVLGIASMSTVRASSLQDLIYKRGQAGVTKASVTIVFDNTDKSNSPIGFTNSPQISVTRQVVLGGTSKYLINGHRAPQQSVLQLFQSVQLNINNPNFLIMQGKITKVLNMKPSEILSLIEEAAGTKMFEDRREKAERTMSKKETKLQENRTLLTEEIEPKLEKLRNEKRMFLEFQSTQTDLEKTERIVVSYEYYNIKHKHTSIRETLENGETRMKMLNEFVKKTSEEIDSLNEDVEEIKLQKEKELHKEGTISKLENKENGLLNEISRLKTSLSIKVENLNDTTEKSKALESEIASSSAKLIEKKSAYANTEKDYKMVQEQLSKQRDLYKRKEELVSTLTTGISSTGAADGGYNAQLAKAKTELNEVSLAIKKSSMKMELLKKELLTIEPKLKEATKDNELNVKHVKQCQETCDKLRARLVEYGFDPSRIKDLKQREDKLKSHYYQTCKNSEYLKRRVTNLEFNYTKPYPNFEASFVHGVVGQLFQIDNDNIRYATALQTCAGGRLFNVVVQDSQTATQLLERGRLRKRVTIIPLDKIYTRPISSQVLDLAKKIAPGKVELAINLIRFDESITKAMEFIFGNSLICEDPETAKKITFHPKIRARSITLQGDVYDPEGTLSGGSRNTSESLLVDIQKYNQIQKQIETIQADLNHVTEELQTQYATSQKTKTIQSDLNLSLHKLDLAKRNLDANPSSQIIARNEEILRDIGECENEIKTKQMSLKKCQEEVSTIEKDMKEYDSDKGSKLNELKKELKLLAKELEEQESESERKYDLFQNLELETEQLSSELDSNKTLLHNHLKSIESLKLENSDLEGKIRGVEDDLVTVQTELNEEKKRLMDIDDELNELETLIKKKQDEKKSSELELQKLVHDLNKYKSNTNNMEKIIEDLRQKHEFLEDFDLVRNIVKQNEGIDLDTYRERSKQLNEKFQELRKKVNPNIMNMIENVEKKEAALKTMIKTIEKDKMKIQETISKLNEYKRETLVKTWEKVTLDFGNIFADLLPNSFAKLVPCEGKDVTQGLEVKVKLGNIWKESLIELSGGQRSLIALSLIMALLQFRPAPMYILDEVDAALDLSHTQNIGHLIKTRFKGSQFIVVSLKEGMFANANRVFRTRFQDGTSVVSIM
B2: Brn1-3xHA-12xHIS (protein, UniProt P38170 1-754)
chain: MTTQLRYENNDDDERVEYNLFTNRSTMMANFEEWIKMATDNKINSRNSWNFALIDYFYDLDVLKDGENNINFQKASATLDGCIKIYSSRVDSVTTETGKLLSGLAQRKTNGASNGDDSNGGNGEGLGGDSDEANIEIDPLTGMPISNDPDVNNTRRRVYNRVLETTLVEFETIKMKELDQELIIDPLFKKALVDFDEGGAKSLLLNTLNIDNTARVIFDASIKDTQNVGQGKLQRKEEELIERDSLVDDENEPSQSLISTRNDSTVNDSVISAPSMEDEILSLGMDFIKFDQIAVCEISGSIEQLRNVVEDINQAKDFIENVNNRFDNFLTEEELQAAVPDNAEDDSDGFDMGMQQELCYPDENHDNTSHDEQDDDNVNSTTGSIFEKDLMAYFDENLNRNWRGREHWKVRNFKKANLVNKESDLLEETRTTIGDTTDKNTTDDKSMDTKKKHKQKKVLEIDFFKTDDSFEDKVFASKGRTKIDMPIKNRKNDTHYLLPDDFHFSTDRITRLFIKPGQKMSLFSHRKHTRGDVSSGLFEKSTVSANHSNNDIPTIADEHFWADNYERKEQEEKEKEQSKEVGDVVGGALDNPFEDDMDGVDFNQAFEGTDDNEEASVKLDLQDDEDHKFPIRENKVTYSRVSKKVDVRRLKKNVWRSINNLIQEHDSRKNREQSSNDSETHTEDESTKELKFSDIIQGISKMYSDDTLKDISTSFCFICLLHLANEHGLQITHTENYNDLIVNYEDLATTQAAS
B3: Ycs4 (protein, UniProt Q06156 1-1176)
chain: MSGFSLSEYLTKFQTTDRESYPRLQDPSRELNVIIDQLAVSPEQIDASPDSLEALIDLCHDFPHLTPKLQTQLSYLISSSLSNLSKDIKANLSSNVNFTEIGGLIPQWKRHLEEYGYLIQVLLTFLQDELHKVSSQSTNLNRSAKNSKNDSANVELFKRDCNQMENLLESITKLLEINLSKIFQTTPEKDLFIGLFTRPLFVLLEIEPVTKVSSLKMFIQRILAMCVKNHGQSSSIQSSLMTNLTYFLHLSVFNAELLKLLNDEYNYPQLTEDILKEISTRVFNAKDTTGPKAISNFLIKLSELSPGIMLRQMNLVITLLNNSSITLRCSVVEACGNIVAELAQDPQTMEHYKQQIAVLIELLEERFQDSNPYVRTKAIQGCSKICDLSSKFNKSKAKFTSLAVRSLQDRSSLVRRNSVKLLSKLLLKHPFKAIHGSQLRLSEWEEYLKGSESQLNSTLKKVESQETLNDTIERSLIEEEVEQDEGQCRTELEGSFNKSAELSRIENEVENINATNTSVLMKLKLMIVYYKDAISFIKEIHKSIELISNLLFSKNRNEVLESMDFLVLADAFDIELSEFGIKKMLHLVWMKGTNDEGTSISVHLIECYKQLFLTAPDSCNMQEKAAHIAKNLINLSIGASIADLASLEQLLGMMYEQKLIDQHVINILWAIYNSASKASMQKEQNVNNRDSEKGFSKEQIHGSIIILGMLSLADNEIALKGLESLLNIGLGAVGLKDLTLCRYSCLALERMVPKRSTIITKAINQELEDVAVKKLYAIIINYTKDNEYYPMCEQALSALFTISSKPDILATDLIREKTMMTFGKPEEEDSILSLEQSSRVVSLSQLLFIVGQVAIKTLVYLEKCEAEFKKRKIEAETRNGKVKNQGADVTNTTQDNGGDKELEMIGGTNEDDFTDAIQFVKENELLFGEKSILGKFCPIVEEIVSNSSRFSDPMLQRTATLCLEKLMCLSSKYCEKSLPLLITVMEKSPDPTIRSNAVLGLGDMAVCFNNLVDENTDYLYRRLHDENLMVQRTCLMTVTFLILAGQVKVKGQLGEMAKCLDNPDQGISDMCRLFFTELASKDNAIYNGFIDIFSNLSSDDLLGKESFKKIIKFLLTFIDKERHQKQLNEKLVGRLRKCETQKQWDDIAFVLNNLPYKNEDVTALLEQGFKVVSAKE
B4: Ycg1-3xFLAG-9xHIS (protein, UniProt Q06680 1-1035)
chain: MQDPDGIDINTKIFNSVAEVFQKAQGSYAGHRKHIAVLKKIQSKAVEQGYEDAFNFWFDKLVTKILPLKKNEIIGDRIVKLVAAFIASLERELILAKKQNYKLTNDEEGIFSRFVDQFIRHVLRGVESPDKNVRFRVLQLLAVIMDNIGEIDESLFNLLILSLNKRIYDREPTVRIQAVFCLTKFQDEEQTEHLTELSDNEENFEATRTLVASIQNDPSAEVRRAAMLNLINDNNTRPYILERARDVNIVNRRLVYSRILKSMGRKCFDDIEPHIFDQLIEWGLEDRELSVRNACKRLIAHDWLNALDGDLIELLEKLDVSRSSVCVKAIEALFQSRPDILSKIKFPESIWKDFTVEIAFLFRAIYLYCLDNNITEMLEENFPEASKLSEHLNHYILLRYHHNDISNDSQSHFDYNTLEFIIEQLSIAAERYDYSDEVGRRSMLTVVRNMLALTTLSEPLIKIGIRVMKSLSINEKDFVTMAIEIINDIRDDDIEKQEQEEKIKSKKINRRNETSVDEEDENGTHNDEVNEDEEDDNISSFHSAVENLVQGNGNVSESDIINNLPPEKEASSATIVLCLTRSSYMLELVNTPLTENILIASLMDTLITPAVRNTAPNIRELGVKNLGLCCLLDVKLAIDNMYILGMCVSKGNASLKYIALQVIVDIFSVHGNTVVDGEGKVDSISLHKIFYKVLKNNGLPECQVIAAEGLCKLFLADVFTDDDLFETLVLSYFSPINSSNEALVQAFAFCIPVYCFSHPAHQQRMSRTAADILLRLCVLWDDLQSSVIPEVDREAMLKPNIIFQQLLFWTDPRNLVNQTGSTKKDTVQLTFLIDVLKIYAQIEKKEIKKMIITNINAIFLSSEQDYSTLKELLEYSDDIAENDNLDNVSKNALDKLRNNLNSLIEEINERSETQTKDENNTANDQYSSILGNSFNKSSNDTIEHAADITDGNNTELTKTTVNISAVDNTTEQSNSRKRTRSEAEQIDTSKNLENMSIQDTSTVAKNVSFVLPDEKSDAMSIDEEDKDSESFSEVC

What follows are binders tested against T1, Smc4-L1333I-L1335A, 3xStrepTagII-tagged (S. cerevisiae) (assay: tandem affinity co-purification (Ni-NTA, Strep-Trap) + SEC; five condensin subunits co-overexpressed in yeast; extract in 500 mM NaCl, 10 mM Tris-HCl pH 8.0, 10% glycerol; Ni-NTA (His tags on Brn1 and Ycg1), then Strep-Trap HP (3xStrepTagII on Smc4), then Superose 6 10/300 in 200 mM NaCl, 50 mM Tris-HCl pH 8.0; subunits seen by SDS-PAGE and Coomassie staining).

binding, binds:
B1
B2
B3
B4
